Test results from article PMC2997466, “The unstructured C-terminal extension of UvrD interacts with UvrB, but is dispensable for nucleotide excision repair” (DNA Repair, 2009).
Results are given in words; binding and its absence hold for the method and conditions named. Where a sequence is shown, tags or fusion partners need not be part of it.

T1: λ cI-UvrB 251–547 (1b3) fusion protein (E. coli, UniProt P0A8F8 251-547)
T1 construct: UvrB, E. coli, residues 251-547 (domains 1b and 3); also called UvrB domains 1b and 3; source: bacterial two-hybrid fusion, pRA03 derivative, in E. coli KS1; not shown: λ cI residues 1–236, N-terminal, kept
T1 sequence (looked up): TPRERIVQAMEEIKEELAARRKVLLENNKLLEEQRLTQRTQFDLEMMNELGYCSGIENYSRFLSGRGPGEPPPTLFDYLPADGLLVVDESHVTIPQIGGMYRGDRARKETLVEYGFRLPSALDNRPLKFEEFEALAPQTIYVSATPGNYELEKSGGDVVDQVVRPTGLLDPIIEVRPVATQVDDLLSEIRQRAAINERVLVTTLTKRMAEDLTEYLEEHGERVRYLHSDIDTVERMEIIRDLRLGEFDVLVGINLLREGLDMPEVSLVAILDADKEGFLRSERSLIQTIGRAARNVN

T2: λ cI-UvrB 527–673 (4) fusion protein (E. coli, UniProt P0A8F8 527-673)
T2 construct: UvrB, E. coli, residues 527-673 (domain 4); also called UvrB domain 4; source: bacterial two-hybrid fusion, pRA03 derivative, in E. coli KS1; not shown: λ cI residues 1–236, N-terminal, kept
T2 sequence (looked up): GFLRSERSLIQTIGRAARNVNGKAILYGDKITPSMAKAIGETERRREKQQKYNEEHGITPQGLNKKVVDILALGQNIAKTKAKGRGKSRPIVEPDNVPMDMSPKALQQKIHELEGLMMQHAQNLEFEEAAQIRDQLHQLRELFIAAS

T3: λ cI-UvrB 35–252 (1a2) fusion protein (E. coli, UniProt P0A8F8 35-252)
T3 construct: UvrB, E. coli, residues 35-252 (domains 1a and 2); also called UvrB fragment containing domains 1a and 2; source: bacterial two-hybrid fusion, pRA03 derivative, in E. coli KS1; not shown: λ cI residues 1–236, N-terminal, kept
T3 sequence (looked up): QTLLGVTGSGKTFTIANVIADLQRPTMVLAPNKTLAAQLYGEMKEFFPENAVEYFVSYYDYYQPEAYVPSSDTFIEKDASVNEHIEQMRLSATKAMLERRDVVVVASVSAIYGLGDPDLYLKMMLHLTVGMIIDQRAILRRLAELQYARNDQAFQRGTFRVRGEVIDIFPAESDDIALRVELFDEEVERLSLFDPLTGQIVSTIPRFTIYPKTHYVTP

B1: α-UvrD 645–720 (C-extension) fusion protein (domain or fragment, E. coli, UniProt P03018 645-720, looked up)
chain: RLRATVSRPVSHQRMGTPMVENDSGYKLGQRVRHAKFGEGTIVNMEGSGEHSRLQVAFQGQGIKWLVAAYARLESV
notes: UvrD (helicase II), E. coli, residues 645-720 (unstructured C-terminal extension); also called C-terminal extension of UvrD (residues 645–720); source: bacterial two-hybrid fusion, pRA02 derivative, in E. coli KS1; not shown: RNA polymerase α subunit residues 1–248, N-terminal, kept
B2: α-UvrD 83–214 (1b) fusion protein (domain or fragment, UniProt P03018 83-214)
chain: GGMWVGTFHGLAHRLLRAHHMDANLPQDFQILDSEDQLRLLKRLIKAMNLDEKQWPPRQAMWYINSQKDEGLRPHHIQSYGNPVEQTWQKVYQAYQEACDRAGLVDFAELLLRAHELWLNKPHILQHYRERF

Experiments:
Experiment in all cases: two-hybrid; bacterial 2-hybrid (Dove and Hochschild) in E. coli KS1: UvrD fragments fused to RNA polymerase α 1–248, UvrB fragments fused to λ cI 1–236; chromosomal lacZ reporter, β-galactosidase in Miller Units; LB with 1 mM IPTG, 30 °C, mid-log phase
[1] = target: T1, λ cI-UvrB 251–547 (1b3) fusion protein
[2] = target: T2, λ cI-UvrB 527–673 (4) fusion protein
[3] = target: T3, λ cI-UvrB 35–252 (1a2) fusion protein

| Binder | binding [1] | binding [2] | binding [3] |
| --- | --- | --- | --- |
| B1 | no binding | no binding | – |
| B2 | no binding | no binding | no binding |
